Data from paper doi:10.1101/051425.
These are yes or no findings as the source states them, for the method shown.

Molecular target: SH3 domain of rat Shank3 (residues 470-528) (rat) (UniProt Q9JLU4)
Test: SEC

**Q.** With “SH3 domain of rat Shank3 (residues 470-528) (from UniProt Q9JLU4 470-528) (domain or fragment)” as the substance, how does the binding read?
**A.** The binding was “no binding”.
